From publication PMC10164551, “Structural basis of tRNAPro acceptor stem recognition by a bacterial trans-editing domain”
The comparison behind a weaker result is the experiment's own reference, which may not be listed here. Tags and fusion partners may be left off the protein sequences shown.

Biological target: T1, ProXp-ala WT (Caulobacter crescentus) (UniProt Q9ABV9)
T1 sequence (looked up): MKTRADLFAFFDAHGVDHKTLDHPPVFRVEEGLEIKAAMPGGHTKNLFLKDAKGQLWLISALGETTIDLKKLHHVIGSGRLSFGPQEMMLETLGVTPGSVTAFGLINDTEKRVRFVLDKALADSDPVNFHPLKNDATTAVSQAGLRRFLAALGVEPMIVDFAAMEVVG
Assay: NMR
Conditions: 100 μM each, NMR: same phosphate buffer, 10% D2O, 25 °C, recombinant protein, residues 1-168

## GGGCGAGUUCGCUCGCCCACCA [G1:C72-microhelixPro]
  binding result: binds more weakly

## CGGCGAGUUCGCUCGCCGACC [ΔA76-microhelixPro]
Minimal binding
  binding result: binds more weakly

## CGGCGAGUUCGCUCGCCGACC [3'pΔA76-microhelixPro]
CSPs very similar to ΔA76, 3' phosphate on terminal C
  binding result: binds more weakly
